Results from doi:10.1101/2022.02.14.480308.
Results are given in words; binding and its absence hold for the method and conditions named. Binding seen in cells or lysates may run through a third protein. These calls come from enrichment with a bait or labelling near it, and not all partners need be listed.

Target: SctG-sfGFP (Yersinia enterocolitica pilotin SctG fused to sfGFP) (Yersinia enterocolitica) (UniProt Q56851)
Test: affinity purification with mass spectrometry

| Substance | binding |
| --- | --- |
| SecF (from UniProt A0ACH1CFQ5) | binds |
| large export apparatus protein SctV (from UniProt P0C2V3) | binds |
| prokaryotic tubulin homolog FtsZ (from UniProt A0ACH1CEN6) | binds |
